This is one part of the list.
How the values were obtained:
Experiment in all cases: log2 fold change, soluble protein after heating vs DMSO (PISA); higher = thermal stabilisation; K562 lysate, 10 uM; active = over 0.2 and 3.5 SD of the protein, either way, in both replicates (recomputed)
lapatinib = compound: CS(=O)(=O)CCNCc1ccc(-c2ccc3ncnc(Nc4ccc(OCc5cccc(F)c5)c(Cl)c4)c3c2)o1 [lapatinib]
How it was run: (§1)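 To prepare the extract, K562 pellets were dounce-homogenised in PBS pH 7.4 with 1 mM MgCl2, giving crude material at 1 mg/mL protein. This was treated with 10 μM compound for 30 min, then heated in aliquots for 3 min over 48°C-58°C before pooling and addition of NP-40 to 0.5% at 4°C. Centrifugation at 21,000xg for 90 min left soluble protein in the supernatant, which TMTpro 16plex LC-MS/MS quantified with equalised channel sums. Results are log-two fold changes in thermal stability compared with solvent controls, from duplicates.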

Sequences of proteins named here, by UniProt entry; tags and fusion partners are left off. A change or cut given only in a name is not applied to a line headed by its entry.
UniProt P78560: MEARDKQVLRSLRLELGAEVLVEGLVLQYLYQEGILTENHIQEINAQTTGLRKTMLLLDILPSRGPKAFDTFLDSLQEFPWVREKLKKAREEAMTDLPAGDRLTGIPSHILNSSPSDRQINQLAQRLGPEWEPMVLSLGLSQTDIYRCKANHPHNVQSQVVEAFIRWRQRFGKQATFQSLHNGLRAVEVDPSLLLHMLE
UniProt Q9H9Q2: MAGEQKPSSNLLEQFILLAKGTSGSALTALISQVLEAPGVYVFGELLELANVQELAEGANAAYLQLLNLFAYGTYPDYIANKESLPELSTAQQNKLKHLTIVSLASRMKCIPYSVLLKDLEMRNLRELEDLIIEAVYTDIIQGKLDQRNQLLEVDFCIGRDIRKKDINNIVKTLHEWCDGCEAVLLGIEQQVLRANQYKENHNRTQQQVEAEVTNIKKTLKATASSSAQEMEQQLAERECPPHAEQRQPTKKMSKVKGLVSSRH
UniProt P09543: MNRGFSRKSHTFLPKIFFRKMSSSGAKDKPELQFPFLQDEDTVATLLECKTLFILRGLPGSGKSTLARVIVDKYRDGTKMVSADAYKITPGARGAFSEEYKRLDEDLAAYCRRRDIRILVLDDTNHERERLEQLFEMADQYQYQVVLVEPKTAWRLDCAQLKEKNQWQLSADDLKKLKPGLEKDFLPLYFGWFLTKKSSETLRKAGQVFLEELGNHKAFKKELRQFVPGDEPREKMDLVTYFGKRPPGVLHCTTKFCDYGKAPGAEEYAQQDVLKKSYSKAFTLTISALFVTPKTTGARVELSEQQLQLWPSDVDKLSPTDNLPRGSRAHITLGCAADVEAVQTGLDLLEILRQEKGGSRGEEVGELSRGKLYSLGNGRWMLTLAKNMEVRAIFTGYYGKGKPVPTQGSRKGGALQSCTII
UniProt O14579: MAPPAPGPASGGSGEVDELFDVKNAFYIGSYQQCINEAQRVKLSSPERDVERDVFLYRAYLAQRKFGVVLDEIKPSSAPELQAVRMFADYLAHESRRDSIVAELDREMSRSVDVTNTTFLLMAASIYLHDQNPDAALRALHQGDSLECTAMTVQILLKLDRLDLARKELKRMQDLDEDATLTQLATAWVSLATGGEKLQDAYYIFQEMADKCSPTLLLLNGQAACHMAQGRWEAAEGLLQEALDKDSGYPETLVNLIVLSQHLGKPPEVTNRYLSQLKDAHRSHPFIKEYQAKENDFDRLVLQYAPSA
UniProt Q96JB2: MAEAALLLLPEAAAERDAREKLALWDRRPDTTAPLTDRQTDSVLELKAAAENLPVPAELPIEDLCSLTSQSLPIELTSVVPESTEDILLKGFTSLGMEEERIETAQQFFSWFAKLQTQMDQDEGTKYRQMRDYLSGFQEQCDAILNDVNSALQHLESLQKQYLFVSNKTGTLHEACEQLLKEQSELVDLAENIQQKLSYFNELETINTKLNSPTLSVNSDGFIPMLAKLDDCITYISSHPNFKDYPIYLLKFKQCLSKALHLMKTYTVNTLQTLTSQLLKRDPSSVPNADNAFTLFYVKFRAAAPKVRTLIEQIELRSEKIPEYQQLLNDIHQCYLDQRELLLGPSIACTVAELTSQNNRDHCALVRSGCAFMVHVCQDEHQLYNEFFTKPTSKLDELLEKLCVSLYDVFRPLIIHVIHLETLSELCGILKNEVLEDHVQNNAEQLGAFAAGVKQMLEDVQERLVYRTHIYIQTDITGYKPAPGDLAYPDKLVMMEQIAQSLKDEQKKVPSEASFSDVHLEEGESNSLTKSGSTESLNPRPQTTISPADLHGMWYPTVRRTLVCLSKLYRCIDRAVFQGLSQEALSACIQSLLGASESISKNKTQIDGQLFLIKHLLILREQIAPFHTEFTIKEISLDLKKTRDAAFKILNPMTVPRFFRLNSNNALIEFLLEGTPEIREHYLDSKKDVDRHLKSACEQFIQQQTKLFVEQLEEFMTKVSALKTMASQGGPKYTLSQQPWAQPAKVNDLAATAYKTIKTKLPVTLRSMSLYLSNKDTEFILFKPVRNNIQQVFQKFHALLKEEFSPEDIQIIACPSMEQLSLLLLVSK
UniProt Q92905, whole entry, looked up: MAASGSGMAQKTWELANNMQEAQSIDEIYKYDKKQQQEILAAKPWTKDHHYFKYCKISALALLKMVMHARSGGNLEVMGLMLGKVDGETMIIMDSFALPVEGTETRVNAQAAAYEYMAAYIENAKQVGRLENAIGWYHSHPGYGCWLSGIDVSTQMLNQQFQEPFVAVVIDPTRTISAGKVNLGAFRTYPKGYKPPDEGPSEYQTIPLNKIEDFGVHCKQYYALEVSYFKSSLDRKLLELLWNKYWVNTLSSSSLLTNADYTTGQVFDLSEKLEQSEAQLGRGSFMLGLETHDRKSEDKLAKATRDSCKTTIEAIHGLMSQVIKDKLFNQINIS
UniProt Q9ULV4, whole entry, looked up: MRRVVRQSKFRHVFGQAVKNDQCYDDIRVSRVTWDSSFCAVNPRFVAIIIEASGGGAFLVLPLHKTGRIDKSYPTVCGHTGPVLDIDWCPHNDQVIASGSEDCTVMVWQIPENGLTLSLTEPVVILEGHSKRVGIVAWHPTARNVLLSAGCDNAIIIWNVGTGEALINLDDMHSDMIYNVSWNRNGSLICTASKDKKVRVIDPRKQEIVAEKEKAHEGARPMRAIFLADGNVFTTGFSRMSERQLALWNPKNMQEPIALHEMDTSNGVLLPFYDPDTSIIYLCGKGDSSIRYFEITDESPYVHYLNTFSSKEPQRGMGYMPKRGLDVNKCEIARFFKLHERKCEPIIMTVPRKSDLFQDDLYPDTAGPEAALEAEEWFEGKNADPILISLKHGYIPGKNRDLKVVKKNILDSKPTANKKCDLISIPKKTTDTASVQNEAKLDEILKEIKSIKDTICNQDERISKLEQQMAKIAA
UniProt P51911: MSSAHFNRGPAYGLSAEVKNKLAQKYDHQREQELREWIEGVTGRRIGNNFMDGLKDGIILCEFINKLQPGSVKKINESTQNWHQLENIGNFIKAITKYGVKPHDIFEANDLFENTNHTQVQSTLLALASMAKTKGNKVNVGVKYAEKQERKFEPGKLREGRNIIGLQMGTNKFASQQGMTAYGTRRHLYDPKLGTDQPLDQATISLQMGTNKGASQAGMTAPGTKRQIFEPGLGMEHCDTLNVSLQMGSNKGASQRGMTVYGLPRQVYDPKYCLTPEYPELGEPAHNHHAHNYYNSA
UniProt Q5HYK3: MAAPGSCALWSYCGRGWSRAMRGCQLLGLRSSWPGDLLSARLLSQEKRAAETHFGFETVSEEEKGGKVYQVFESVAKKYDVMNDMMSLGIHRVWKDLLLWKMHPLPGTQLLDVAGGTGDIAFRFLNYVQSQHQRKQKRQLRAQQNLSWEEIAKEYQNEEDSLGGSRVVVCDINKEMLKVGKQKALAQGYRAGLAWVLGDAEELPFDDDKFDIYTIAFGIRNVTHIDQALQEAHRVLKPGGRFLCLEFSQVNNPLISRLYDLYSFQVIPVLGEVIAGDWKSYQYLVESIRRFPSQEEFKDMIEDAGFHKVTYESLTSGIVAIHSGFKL
UniProt Q9NZN8, whole entry, looked up: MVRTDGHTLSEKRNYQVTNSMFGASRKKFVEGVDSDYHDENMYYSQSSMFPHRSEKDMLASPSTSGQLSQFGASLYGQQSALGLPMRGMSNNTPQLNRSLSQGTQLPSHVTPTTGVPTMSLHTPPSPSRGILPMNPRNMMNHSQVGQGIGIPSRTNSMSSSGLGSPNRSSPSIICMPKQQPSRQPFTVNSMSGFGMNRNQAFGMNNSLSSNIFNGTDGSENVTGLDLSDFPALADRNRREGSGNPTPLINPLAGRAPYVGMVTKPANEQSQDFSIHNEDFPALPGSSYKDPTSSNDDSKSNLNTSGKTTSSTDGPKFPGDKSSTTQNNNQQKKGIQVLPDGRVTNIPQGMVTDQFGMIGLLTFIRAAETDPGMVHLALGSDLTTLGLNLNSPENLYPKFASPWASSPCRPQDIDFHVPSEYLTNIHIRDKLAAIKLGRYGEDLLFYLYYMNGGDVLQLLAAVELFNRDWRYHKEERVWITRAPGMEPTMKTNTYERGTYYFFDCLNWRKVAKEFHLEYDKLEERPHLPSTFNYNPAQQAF
UniProt Q99627: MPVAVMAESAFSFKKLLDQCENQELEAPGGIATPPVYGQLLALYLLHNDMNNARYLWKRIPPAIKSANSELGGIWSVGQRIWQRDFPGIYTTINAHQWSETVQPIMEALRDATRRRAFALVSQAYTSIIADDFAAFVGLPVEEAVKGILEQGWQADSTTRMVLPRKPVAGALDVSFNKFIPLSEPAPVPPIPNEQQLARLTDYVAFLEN
UniProt Q9Y646: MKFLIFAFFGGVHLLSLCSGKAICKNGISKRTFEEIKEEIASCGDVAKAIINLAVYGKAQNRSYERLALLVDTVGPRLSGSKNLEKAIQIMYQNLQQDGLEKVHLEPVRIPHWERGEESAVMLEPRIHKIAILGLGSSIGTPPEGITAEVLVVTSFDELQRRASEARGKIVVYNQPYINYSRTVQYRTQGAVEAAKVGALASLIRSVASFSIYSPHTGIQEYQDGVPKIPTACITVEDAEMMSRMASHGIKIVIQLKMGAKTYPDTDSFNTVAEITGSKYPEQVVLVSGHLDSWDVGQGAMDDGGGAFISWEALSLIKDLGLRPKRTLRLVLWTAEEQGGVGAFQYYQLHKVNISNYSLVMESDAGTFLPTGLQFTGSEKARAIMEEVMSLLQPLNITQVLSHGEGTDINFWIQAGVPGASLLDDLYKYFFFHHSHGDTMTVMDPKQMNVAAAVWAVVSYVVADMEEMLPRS

pictilisib = compound: CS(=O)(=O)N1CCN(Cc2cc3nc(-c4cccc5[nH]ncc45)nc(N4CCOCC4)c3s2)CC1 [pictilisib]
How it was run: as §1

crizotinib = compound: C[C@@H](Oc1cc(-c2cnn(C3CCNCC3)c2)cnc1N)c1c(Cl)ccc(F)c1Cl [crizotinib]
How it was run: as §1

[1] = compound: C[C@H](C1=CC=C(C=C1)C(=O)NC2=C3C=CNC3=NC=C2)N
How it was run: as §1

duvelisib = compound: C[C@H](Nc1ncnc2nc[nH]c12)c1cc2cccc(Cl)c2c(=O)n1-c1ccccc1 [duvelisib]
How it was run: as §1

gandotinib = compound: Cc1cc(Nc2cc(CN3CCOCC3)c3nc(C)c(Cc4ccc(Cl)cc4F)n3n2)n[nH]1 [gandotinib]
How it was run: as §1

tozasertib = compound: Cc1cc(Nc2cc(N3CCN(C)CC3)nc(Sc3ccc(NC(=O)C4CC4)cc3)n2)n[nH]1 [tozasertib]
How it was run: as §1

doramapimod = compound: Cc1ccc(-n2nc(C(C)(C)C)cc2NC(=O)Nc2ccc(OCCN3CCOCC3)c3ccccc23)cc1 [doramapimod]
How it was run: as §1

bafetinib = compound: Cc1ccc(NC(=O)c2ccc(CN3CC[C@H](N(C)C)C3)c(C(F)(F)F)c2)cc1Nc1nccc(-c2cncnc2)n1 [bafetinib]
How it was run: as §1

[2] = compound: Cc1cccc(CC(=O)N2CCc3c2ccc(-c2cn(C)c4ncnc(N)c24)c3F)n1
How it was run: as §1

nilotinib = compound: Cc1cn(-c2cc(NC(=O)c3ccc(C)c(Nc4nccc(-c5cccnc5)n4)c3)cc(C(F)(F)F)c2)cn1 [nilotinib]
How it was run: as §1

[3] = compound: Cc1nc(Nc2n[nH]c3c2CN(C(=O)N[C@H](CN(C)C)c2ccccc2)C3(C)C)c2sccc2n1
How it was run: as §1

dasatinib = compound: Cc1nc(Nc2ncc(C(=O)Nc3c(C)cccc3Cl)s2)cc(N2CCN(CCO)CC2)n1 [dasatinib]
How it was run: as §1

[4] = compound: Cc1ncc(-c2ccnc(Nc3ccc(S(C)(=O)=O)cc3)n2)n1C(C)C
How it was run: as §1

[5] = compound: Cn1cc(-c2ccc3c(c2)CCN3C(=O)Cc2cccc(C(F)(F)F)c2)c2c(N)ncnc21
How it was run: as §1

quisinostat = compound: Cn1cc(CNCC2CCN(c3ncc(C(=O)NO)cn3)CC2)c2ccccc21 [quisinostat]
How it was run: as §1

tipifarnib = compound: Cn1cncc1[C@@](N)(c1ccc(Cl)cc1)c1ccc2c(c1)c(-c1cccc(Cl)c1)cc(=O)n2C [tipifarnib]
How it was run: as §1

[6] = compound: NC(=O)Nc1cc(-c2cccc(F)c2)sc1C(=O)N[C@H]1CCCNC1
How it was run: as §1

[7] = compound: NC(=O)c1cnc(N[C@@H]2CCCC[C@@H]2N)nc1Nc1cccc(-n2nccn2)c1
How it was run: as §1

[8] = compound: NC1(c2ccc(-c3nc4ccn5c(=O)[nH]nc5c4cc3-c3ccccc3)cc2)CCC1
How it was run: as §1

Measured: log2 fold change

CRADD (UniProt P78560)
inactive: lapatinib 0.047 | pictilisib -0.031 | crizotinib 0 | [1] -0.004 | duvelisib 0.008 | gandotinib -0.009 | tozasertib 0.037 | doramapimod -0.057 | bafetinib -0.063 | [2] 0.164 | nilotinib 0.016 | [3] -0.079 | dasatinib -0.096 | [4] -0.034 | [5] -0.011 | quisinostat -0.054 | tipifarnib -0.039 | [6] 0.03 | [7] 0.074 | [8] -0.058

COPS7B isoform 3 (UniProt Q9H9Q2)
inactive: lapatinib 0.013 | pictilisib 0.028 | crizotinib 0.006 | [1] -0.03 | duvelisib 0.032 | gandotinib 0.008 | tozasertib -0.027 | doramapimod 0 | bafetinib 0.059 | [2] -0.01 | nilotinib 0.062 | [3] 0.018 | dasatinib -0.011 | [4] -0.017 | [5] -0.018 | quisinostat 0.039 | tipifarnib -0.033 | [6] -0.034 | [7] -0.042 | [8] -0.027

CNP (UniProt P09543)
inactive: lapatinib 0.014 | pictilisib 0.015 | crizotinib -0.023 | [1] 0.002 | duvelisib -0.002 | gandotinib -0.047 | tozasertib 0.012 | doramapimod 0.039 | bafetinib -0.026 | [2] 0.022 | nilotinib 0.033 | [3] 0.023 | dasatinib -0.047 | [4] -0.007 | [5] 0.003 | quisinostat -0.028 | tipifarnib -0.055 | [6] -0.009 | [7] -0.007 | [8] -0.009

COPE (UniProt O14579)
inactive: lapatinib 0.004 | pictilisib 0.021 | crizotinib -0.072 | [1] -0.108 | duvelisib 0.046 | gandotinib 0.097 | tozasertib 0.045 | doramapimod 0.06 | bafetinib -0.009 | [2] 0.135 | nilotinib -0.009 | [3] -0.011 | dasatinib -0.058 | [4] -0.057 | [5] -0.006 | quisinostat -0.117 | tipifarnib 0.015 | [6] 0.026 | [7] 0.006 | [8] -0.02

Retrieved one by one from the entries so far, 2 records:
COPE (UniProt O14579)
inactive: lapatinib 0.004 | pictilisib 0.021 | crizotinib -0.072 | [1] -0.108 | duvelisib 0.046 | gandotinib 0.097 | tozasertib 0.045 | doramapimod 0.06 | bafetinib -0.009 | [2] 0.135 | nilotinib -0.009 | [3] -0.011 | dasatinib -0.058 | [4] -0.057 | [5] -0.006 | quisinostat -0.117 | tipifarnib 0.015 | [6] 0.026 | [7] 0.006 | [8] -0.02

COPS7B isoform 3 (UniProt Q9H9Q2)
inactive: lapatinib 0.013 | pictilisib 0.028 | crizotinib 0.006 | [1] -0.03 | duvelisib 0.032 | gandotinib 0.008 | tozasertib -0.027 | doramapimod 0 | bafetinib 0.059 | [2] -0.01 | nilotinib 0.062 | [3] 0.018 | dasatinib -0.011 | [4] -0.017 | [5] -0.018 | quisinostat 0.039 | tipifarnib -0.033 | [6] -0.034 | [7] -0.042 | [8] -0.027

(cont.)

COG3 (UniProt Q96JB2)
inactive: lapatinib -0.036 | pictilisib -0.054 | crizotinib -0.062 | [1] -0.036 | duvelisib 0.006 | gandotinib -0.064 | tozasertib 0.015 | doramapimod 0.03 | bafetinib 0.003 | [2] 0.093 | nilotinib -0.02 | [3] -0.023 | dasatinib -0.13 | [4] -0.002 | [5] 0.023 | quisinostat -0.097 | tipifarnib 0.022 | [6] 0.044 | [7] 0.024 | [8] -0.083

COPS5 (UniProt Q92905)
inactive: lapatinib -0.018 | pictilisib -0.01 | crizotinib -0.008 | [1] 0.006 | duvelisib 0.014 | gandotinib -0.007 | tozasertib 0.011 | doramapimod 0.03 | bafetinib 0.014 | [2] -0.015 | nilotinib 0.008 | [3] -0.008 | dasatinib 0.026 | [4] -0.024 | [5] -0.004 | quisinostat -0.019 | tipifarnib 0.01 | [6] -0.011 | [7] -0.022 | [8] -0.016

CORO1C isoform 3 (UniProt Q9ULV4)
inactive: lapatinib -0.003 | pictilisib 0.004 | crizotinib -0.007 | [1] 0.02 | duvelisib 0.01 | gandotinib 0.005 | tozasertib 0.01 | doramapimod 0.012 | bafetinib 0.036 | [2] -0.005 | nilotinib -0.011 | [3] 0.008 | dasatinib 0.019 | [4] -0.002 | [5] -0.016 | quisinostat -0.011 | tipifarnib 0.014 | [6] -0.029 | [7] -0.016 | [8] -0.01

CNN1 (UniProt P51911)
inactive: lapatinib -0.052 | pictilisib 0.011 | crizotinib 0.017 | [1] -0.017 | duvelisib -0.035 | gandotinib 0.002 | tozasertib -0.087 | doramapimod -0.021 | bafetinib -0.056 | [2] 0.008 | nilotinib -0.022 | [3] 0.02 | dasatinib 0.006 | [4] 0.081 | [5] -0.038 | quisinostat 0.011 | tipifarnib -0.109 | [6] -0.041 | [7] 0.04 | [8] -0.009

COQ5 (UniProt Q5HYK3)
inactive: lapatinib 0.084 | pictilisib -0.011 | crizotinib -0.031 | [1] 0.036 | duvelisib -0.004 | gandotinib -0.005 | tozasertib -0.027 | doramapimod 0.008 | bafetinib -0.033 | [2] -0.01 | nilotinib 0.006 | [3] 0.012 | dasatinib -0.025 | [4] -0.008 | [5] 0.001 | quisinostat -0.043 | tipifarnib 0.004 | [6] 0.002 | [7] -0.027 | [8] 0.022

CNOT2 (UniProt Q9NZN8)
inactive: lapatinib -0.027 | pictilisib -0.014 | crizotinib -0.023 | [1] 0.111 | duvelisib -0.008 | gandotinib -0.093 | tozasertib 0.001 | doramapimod -0.01 | bafetinib 0.024 | [2] -0.005 | nilotinib 0.013 | [3] -0.011 | dasatinib -0.024 | [4] 0.009 | [5] -0.018 | quisinostat -0.026 | tipifarnib -0.074 | [6] 0.024 | [7] 0.02 | [8] -0.001

COPS8 (UniProt Q99627)
inactive: lapatinib 0.022 | pictilisib -0.002 | crizotinib 0 | [1] -0.002 | duvelisib 0.018 | gandotinib 0.004 | tozasertib 0.027 | doramapimod 0.014 | bafetinib -0.01 | [2] 0.009 | nilotinib -0.014 | [3] 0.05 | dasatinib 0.001 | [4] 0.004 | [5] -0.08 | quisinostat -0.018 | tipifarnib 0.004 | [6] -0.021 | [7] -0.036 | [8] -0.002

CPQ (UniProt Q9Y646)
inactive: lapatinib -0.05 | pictilisib -0.054 | crizotinib 0.006 | [1] 0.065 | duvelisib -0.007 | gandotinib -0.018 | tozasertib -0.049 | doramapimod 0.013 | bafetinib 0.067 | [2] -0.055 | nilotinib 0.011 | [3] 0.055 | dasatinib 0.001 | [4] -0.013 | [5] 0.016 | quisinostat -0.037 | tipifarnib -0.043 | [6] -0.008 | [7] -0.021 | [8] 0.022
